Test results from article PMC8322090.
Results are given in words; binding and its absence hold for the method and conditions named. Binding seen in cells or lysates may run through a third protein. Some entries that bind do so weakly or less than the wild type.

Protein sequences, listed by entry. Tags and fused reporters are not part of them.
UniProt P08238: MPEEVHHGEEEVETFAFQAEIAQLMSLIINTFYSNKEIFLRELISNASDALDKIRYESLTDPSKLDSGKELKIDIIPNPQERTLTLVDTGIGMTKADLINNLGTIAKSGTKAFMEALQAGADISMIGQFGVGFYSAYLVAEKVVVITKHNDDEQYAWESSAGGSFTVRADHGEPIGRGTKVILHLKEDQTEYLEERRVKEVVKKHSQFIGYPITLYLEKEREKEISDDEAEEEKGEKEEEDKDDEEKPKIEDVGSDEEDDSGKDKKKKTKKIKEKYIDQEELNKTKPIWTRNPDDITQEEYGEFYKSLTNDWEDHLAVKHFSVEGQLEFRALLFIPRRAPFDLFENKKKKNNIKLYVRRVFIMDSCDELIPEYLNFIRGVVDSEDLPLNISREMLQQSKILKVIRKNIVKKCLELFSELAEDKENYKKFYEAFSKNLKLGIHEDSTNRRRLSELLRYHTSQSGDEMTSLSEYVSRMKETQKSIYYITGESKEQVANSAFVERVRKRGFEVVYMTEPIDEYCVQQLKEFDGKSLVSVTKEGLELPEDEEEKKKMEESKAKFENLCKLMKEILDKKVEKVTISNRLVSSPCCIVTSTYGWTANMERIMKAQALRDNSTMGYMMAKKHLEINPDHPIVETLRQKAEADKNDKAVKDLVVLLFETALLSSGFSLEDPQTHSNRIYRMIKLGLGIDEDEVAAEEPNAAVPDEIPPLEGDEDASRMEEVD

Target: S phase kinase-associated protein 2 (SKP2), ectopically overexpressed (UniProt Q13309)
Test: co-IP; under ectopic overexpression condition; cells, tags and which protein was precipitated not told

Row | Substance | binding
1 | HSP90α, ectopically overexpressed (from UniProt P07900 1-732) | binds
2 | HSP90β, ectopically overexpressed (from UniProt P08238 1-724) | binds
